Measurements published in article doi:10.1101/2025.04.28.650959.
No constants are given. Whether binding was seen depends on the method and setting. In cells and extracts the contact can be indirect. Some results given as binding are weak or reduced against the parent protein; the word gives no strength.

Amino acid sequences for entries named in this document (tags omitted).
UniProt Q7Z2W4, whole entry: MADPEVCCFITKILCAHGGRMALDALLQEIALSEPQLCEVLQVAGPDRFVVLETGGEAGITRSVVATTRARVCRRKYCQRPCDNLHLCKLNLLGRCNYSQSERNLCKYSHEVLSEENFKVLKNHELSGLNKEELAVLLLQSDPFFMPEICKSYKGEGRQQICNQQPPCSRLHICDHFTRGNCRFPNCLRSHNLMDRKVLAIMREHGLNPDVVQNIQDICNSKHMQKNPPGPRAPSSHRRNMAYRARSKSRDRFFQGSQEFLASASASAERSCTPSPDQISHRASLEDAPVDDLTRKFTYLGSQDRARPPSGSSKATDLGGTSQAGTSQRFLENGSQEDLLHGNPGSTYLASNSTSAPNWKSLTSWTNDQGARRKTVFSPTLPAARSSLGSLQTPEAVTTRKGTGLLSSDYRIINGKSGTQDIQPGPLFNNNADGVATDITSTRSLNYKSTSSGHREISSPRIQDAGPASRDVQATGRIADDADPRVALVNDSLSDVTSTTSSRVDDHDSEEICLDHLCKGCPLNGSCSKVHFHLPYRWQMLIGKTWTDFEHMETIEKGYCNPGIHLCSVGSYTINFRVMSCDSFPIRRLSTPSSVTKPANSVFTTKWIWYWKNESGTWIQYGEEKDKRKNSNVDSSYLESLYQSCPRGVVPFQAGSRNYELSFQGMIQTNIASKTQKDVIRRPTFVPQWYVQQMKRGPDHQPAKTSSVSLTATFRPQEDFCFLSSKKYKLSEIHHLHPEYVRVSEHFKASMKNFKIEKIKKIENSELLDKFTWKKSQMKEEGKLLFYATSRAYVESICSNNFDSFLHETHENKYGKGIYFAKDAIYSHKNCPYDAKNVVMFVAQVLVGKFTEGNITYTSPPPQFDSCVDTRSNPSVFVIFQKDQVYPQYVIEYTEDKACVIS
UniProt Q14258, whole entry: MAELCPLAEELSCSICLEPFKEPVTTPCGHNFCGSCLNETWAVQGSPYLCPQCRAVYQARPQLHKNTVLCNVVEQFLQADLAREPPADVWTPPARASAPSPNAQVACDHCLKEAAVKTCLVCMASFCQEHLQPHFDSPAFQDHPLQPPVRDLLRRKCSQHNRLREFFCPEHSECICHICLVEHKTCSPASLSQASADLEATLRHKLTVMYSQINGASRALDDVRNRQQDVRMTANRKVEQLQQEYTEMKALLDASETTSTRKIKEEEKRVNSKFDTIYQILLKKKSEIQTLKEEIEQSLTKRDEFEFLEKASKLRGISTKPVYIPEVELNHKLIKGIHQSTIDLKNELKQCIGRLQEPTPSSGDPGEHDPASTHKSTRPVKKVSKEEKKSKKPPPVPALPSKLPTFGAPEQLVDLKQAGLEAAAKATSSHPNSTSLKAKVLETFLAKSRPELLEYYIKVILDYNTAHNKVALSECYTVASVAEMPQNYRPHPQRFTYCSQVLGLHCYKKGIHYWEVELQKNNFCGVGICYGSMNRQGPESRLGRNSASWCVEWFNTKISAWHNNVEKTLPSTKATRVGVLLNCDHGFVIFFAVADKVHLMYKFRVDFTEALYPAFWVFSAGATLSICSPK
UniProt O15037, whole entry: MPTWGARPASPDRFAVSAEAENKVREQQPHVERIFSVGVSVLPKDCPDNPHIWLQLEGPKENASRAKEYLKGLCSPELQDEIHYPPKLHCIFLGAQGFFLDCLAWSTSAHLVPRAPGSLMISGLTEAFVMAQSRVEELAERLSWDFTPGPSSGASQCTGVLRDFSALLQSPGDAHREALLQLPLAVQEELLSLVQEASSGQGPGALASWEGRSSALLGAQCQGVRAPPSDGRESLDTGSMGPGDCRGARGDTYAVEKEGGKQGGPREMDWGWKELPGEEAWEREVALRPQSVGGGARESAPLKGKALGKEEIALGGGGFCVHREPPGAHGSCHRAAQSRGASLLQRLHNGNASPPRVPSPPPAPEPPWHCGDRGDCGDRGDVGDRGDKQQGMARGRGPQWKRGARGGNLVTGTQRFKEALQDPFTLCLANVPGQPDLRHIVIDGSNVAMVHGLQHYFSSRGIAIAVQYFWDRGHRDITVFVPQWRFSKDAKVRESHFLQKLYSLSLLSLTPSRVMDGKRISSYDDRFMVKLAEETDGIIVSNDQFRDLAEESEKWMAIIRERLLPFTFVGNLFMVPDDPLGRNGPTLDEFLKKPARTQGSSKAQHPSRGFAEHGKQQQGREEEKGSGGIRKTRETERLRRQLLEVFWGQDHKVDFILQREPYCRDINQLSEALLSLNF
UniProt Q8IZH2, whole entry: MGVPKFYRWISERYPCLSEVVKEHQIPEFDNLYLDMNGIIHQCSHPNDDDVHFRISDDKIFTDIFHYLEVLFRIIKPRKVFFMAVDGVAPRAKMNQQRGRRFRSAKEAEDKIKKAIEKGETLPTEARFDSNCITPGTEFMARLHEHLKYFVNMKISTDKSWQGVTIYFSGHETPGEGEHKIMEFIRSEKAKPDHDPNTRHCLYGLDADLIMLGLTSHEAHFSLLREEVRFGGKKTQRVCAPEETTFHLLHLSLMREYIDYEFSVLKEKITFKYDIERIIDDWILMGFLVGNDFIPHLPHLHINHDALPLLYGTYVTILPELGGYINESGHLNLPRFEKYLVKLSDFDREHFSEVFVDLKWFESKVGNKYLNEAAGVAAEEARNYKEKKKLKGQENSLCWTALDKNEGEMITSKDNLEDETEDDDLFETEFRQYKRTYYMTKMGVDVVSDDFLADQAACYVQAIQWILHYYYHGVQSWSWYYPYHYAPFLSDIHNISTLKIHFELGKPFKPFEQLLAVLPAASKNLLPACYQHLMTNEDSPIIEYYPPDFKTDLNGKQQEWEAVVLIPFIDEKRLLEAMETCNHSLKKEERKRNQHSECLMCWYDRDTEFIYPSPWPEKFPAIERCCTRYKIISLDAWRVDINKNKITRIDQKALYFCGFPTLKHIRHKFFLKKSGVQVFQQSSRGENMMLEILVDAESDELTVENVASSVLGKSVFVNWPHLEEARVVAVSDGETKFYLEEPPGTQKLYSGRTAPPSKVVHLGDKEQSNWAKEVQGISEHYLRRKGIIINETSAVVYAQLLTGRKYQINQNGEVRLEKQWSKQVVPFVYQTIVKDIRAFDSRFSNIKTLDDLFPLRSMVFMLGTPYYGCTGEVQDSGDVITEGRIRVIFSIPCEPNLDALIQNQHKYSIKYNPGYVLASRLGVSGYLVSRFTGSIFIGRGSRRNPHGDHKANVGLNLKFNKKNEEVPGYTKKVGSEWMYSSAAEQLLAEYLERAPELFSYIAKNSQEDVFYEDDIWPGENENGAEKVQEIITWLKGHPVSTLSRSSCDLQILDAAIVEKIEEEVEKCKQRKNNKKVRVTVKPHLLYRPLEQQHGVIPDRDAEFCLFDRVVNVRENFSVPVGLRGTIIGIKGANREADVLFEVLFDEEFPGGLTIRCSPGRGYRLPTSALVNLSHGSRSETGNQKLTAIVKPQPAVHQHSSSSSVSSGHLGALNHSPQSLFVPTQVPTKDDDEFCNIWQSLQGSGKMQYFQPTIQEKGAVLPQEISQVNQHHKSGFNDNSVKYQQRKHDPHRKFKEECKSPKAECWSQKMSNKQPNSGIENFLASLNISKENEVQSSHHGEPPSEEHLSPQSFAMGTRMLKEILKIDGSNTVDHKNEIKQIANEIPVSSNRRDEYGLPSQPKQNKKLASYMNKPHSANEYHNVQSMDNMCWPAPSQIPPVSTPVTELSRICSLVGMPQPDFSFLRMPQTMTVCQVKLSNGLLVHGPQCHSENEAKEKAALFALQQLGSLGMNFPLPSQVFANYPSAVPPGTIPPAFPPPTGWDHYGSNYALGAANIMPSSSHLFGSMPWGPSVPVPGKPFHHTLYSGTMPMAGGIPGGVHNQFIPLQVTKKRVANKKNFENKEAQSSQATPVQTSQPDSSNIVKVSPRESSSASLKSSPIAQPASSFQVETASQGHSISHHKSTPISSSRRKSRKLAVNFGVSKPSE

Legend:
[1] = target: ZAP-long (ZAP-L), endogenous in HEK293T ZAP-S knockout cells (human (endogenous in HEK293T)) (UniProt Q7Z2W4); assay: co-IP
[2] = target: TRIM25 (E3 ubiquitin ligase), endogenous (human (endogenous in HEK293T and HeLa)) (UniProt Q14258); assay: co-IP

Substance | binding [1] | binding [2]
KHNYN (endoribonuclease), endogenous (from UniProt O15037 1-678) | binds | binds
TRIM25 (E3 ubiquitin ligase), endogenous (from UniProt Q14258 1-630) | binds | 
XRN1 (5'-3' exonuclease), endogenous (from UniProt Q8IZH2 1-1706) |  | binds
